The source of these data is paper PMC10296593.

The chains behind the UniProt entries cited, without tags or fusion partners. Where a name states a change or a piece, a line headed by the entry shows the natural chain unless it says otherwise.
UniProt O15550: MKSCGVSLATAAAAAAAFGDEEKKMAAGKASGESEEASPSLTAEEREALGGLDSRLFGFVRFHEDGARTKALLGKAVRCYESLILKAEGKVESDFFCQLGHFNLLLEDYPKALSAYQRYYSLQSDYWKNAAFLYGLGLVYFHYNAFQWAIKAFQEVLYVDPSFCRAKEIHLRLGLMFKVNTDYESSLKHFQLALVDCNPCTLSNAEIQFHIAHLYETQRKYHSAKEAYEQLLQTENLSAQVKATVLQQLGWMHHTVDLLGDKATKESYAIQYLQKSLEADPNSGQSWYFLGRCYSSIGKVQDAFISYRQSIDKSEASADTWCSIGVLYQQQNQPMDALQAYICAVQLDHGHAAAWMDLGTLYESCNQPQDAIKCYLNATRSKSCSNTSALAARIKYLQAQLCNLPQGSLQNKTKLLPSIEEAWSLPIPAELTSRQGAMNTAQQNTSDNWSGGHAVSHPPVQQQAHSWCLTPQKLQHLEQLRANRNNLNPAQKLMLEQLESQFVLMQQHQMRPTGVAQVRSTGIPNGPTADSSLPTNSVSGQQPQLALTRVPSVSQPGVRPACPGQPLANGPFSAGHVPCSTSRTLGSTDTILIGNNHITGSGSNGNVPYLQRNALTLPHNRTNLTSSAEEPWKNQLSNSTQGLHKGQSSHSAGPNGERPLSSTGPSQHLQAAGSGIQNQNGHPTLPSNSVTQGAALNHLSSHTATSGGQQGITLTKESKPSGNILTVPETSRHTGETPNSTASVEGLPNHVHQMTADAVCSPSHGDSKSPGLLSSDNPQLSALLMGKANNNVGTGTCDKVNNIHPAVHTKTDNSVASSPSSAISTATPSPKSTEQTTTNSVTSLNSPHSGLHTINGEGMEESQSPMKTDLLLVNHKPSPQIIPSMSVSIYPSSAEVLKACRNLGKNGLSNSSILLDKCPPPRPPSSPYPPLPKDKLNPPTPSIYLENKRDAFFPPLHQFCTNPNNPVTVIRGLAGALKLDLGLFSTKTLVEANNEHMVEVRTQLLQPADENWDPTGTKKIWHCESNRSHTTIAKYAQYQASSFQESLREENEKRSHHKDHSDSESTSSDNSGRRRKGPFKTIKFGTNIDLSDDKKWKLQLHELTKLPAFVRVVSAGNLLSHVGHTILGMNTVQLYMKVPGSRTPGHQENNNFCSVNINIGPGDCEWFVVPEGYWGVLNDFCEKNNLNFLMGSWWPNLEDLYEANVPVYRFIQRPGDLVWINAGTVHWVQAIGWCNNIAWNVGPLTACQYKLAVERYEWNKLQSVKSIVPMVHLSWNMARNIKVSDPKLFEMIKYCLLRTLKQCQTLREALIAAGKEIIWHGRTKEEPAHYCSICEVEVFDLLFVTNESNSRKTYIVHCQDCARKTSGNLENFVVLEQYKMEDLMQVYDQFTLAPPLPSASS
UniProt Q92560: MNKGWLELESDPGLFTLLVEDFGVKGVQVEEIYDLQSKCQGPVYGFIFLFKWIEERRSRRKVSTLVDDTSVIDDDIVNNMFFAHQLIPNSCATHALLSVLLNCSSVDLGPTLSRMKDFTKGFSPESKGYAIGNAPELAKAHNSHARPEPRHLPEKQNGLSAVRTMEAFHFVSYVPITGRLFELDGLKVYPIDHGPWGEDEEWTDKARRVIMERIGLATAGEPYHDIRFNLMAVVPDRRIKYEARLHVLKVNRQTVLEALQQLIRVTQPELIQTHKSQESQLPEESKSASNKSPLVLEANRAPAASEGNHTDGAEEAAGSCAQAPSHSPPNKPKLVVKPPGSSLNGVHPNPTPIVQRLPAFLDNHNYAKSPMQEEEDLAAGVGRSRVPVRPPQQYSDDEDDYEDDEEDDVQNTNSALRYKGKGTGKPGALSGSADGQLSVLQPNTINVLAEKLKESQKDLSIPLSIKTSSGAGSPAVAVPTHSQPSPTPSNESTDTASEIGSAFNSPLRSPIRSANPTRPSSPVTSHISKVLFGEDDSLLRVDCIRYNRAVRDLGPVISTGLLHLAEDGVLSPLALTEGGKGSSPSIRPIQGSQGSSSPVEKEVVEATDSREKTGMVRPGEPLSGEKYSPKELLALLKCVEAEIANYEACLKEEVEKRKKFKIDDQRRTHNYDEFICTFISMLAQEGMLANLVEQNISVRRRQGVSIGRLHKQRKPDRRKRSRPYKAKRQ
UniProt Q9BTK6: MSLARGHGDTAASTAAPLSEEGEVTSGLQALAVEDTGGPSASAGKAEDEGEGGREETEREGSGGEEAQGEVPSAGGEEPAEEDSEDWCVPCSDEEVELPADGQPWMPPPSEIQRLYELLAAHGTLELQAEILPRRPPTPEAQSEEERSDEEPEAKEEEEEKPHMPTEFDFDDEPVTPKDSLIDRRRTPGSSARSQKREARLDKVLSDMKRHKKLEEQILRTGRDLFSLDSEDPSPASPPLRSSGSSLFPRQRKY
UniProt Q76L83: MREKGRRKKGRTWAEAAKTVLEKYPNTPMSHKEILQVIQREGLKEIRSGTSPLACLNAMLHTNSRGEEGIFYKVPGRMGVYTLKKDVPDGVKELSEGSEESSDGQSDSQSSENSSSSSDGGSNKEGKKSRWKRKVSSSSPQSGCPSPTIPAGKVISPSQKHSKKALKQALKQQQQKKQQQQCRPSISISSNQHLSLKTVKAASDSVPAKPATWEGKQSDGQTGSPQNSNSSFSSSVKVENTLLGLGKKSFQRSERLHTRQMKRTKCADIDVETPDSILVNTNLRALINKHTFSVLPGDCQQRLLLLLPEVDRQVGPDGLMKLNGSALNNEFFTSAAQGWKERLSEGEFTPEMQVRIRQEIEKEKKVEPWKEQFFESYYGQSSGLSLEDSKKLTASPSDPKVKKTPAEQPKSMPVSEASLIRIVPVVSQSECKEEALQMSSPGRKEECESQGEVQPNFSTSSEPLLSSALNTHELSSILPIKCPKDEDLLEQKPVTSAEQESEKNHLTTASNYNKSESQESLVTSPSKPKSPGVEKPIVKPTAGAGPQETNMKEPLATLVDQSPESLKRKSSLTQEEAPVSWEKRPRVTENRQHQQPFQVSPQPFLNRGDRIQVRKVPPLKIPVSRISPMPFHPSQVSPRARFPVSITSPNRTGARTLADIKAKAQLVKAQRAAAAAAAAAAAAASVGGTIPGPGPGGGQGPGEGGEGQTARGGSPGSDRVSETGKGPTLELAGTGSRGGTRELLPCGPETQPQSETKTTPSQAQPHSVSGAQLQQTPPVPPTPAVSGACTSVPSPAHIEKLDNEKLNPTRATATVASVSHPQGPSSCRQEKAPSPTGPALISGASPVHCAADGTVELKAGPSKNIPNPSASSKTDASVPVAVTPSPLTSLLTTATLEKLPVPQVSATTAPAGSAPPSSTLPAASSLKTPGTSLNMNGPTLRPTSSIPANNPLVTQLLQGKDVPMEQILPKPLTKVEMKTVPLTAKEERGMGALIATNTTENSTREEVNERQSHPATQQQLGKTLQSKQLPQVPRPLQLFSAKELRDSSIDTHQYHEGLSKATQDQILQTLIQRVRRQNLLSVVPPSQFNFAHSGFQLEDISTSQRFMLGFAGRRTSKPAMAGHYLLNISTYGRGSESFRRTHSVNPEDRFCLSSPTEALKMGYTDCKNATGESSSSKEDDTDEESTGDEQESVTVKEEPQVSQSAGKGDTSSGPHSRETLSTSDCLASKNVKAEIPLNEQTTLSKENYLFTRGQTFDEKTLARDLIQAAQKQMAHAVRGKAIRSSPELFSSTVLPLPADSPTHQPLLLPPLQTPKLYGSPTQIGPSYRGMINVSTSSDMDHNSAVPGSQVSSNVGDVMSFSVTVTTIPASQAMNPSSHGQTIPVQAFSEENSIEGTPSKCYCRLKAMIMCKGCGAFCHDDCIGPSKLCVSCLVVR
UniProt Q92769: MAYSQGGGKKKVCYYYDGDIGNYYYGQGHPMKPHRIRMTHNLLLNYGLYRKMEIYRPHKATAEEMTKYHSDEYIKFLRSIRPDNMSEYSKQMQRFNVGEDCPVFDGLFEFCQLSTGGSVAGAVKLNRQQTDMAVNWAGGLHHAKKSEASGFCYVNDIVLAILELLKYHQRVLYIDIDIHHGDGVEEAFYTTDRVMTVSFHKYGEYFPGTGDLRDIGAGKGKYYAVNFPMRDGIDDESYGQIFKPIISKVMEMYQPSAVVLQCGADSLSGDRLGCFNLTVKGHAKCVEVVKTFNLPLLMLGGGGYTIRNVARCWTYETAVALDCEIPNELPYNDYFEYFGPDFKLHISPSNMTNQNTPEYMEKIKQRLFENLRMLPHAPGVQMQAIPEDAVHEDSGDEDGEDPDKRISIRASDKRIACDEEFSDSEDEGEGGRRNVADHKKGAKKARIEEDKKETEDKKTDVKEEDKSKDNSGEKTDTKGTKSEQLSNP
UniProt Q6ZW49: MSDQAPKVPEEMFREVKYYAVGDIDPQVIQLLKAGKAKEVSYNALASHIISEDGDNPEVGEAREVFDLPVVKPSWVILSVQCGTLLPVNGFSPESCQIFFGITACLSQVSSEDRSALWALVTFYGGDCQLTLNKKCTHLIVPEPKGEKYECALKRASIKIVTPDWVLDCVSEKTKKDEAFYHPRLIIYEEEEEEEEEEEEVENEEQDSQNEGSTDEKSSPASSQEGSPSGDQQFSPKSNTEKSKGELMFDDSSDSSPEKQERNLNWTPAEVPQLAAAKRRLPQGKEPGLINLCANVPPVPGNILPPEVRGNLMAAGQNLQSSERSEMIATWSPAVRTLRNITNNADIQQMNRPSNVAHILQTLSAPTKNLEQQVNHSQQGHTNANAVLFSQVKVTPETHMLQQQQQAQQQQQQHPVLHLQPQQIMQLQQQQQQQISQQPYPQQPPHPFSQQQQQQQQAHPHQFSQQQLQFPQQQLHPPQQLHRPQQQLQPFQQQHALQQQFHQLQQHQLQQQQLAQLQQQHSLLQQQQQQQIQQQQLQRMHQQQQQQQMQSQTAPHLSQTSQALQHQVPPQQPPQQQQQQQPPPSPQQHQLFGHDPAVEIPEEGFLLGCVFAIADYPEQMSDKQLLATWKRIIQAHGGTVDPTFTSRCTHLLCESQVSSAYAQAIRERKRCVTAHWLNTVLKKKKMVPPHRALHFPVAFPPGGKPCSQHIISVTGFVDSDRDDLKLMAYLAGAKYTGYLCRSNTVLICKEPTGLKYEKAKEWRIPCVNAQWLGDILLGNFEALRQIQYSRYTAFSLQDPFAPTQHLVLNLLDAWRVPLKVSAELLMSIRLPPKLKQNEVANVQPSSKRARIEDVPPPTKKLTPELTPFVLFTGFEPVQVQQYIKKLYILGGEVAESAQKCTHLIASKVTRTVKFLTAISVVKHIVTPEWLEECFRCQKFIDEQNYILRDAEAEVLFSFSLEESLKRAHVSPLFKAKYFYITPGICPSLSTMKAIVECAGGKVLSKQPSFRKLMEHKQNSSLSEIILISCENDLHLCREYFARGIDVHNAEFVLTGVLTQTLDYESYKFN
UniProt Q13547: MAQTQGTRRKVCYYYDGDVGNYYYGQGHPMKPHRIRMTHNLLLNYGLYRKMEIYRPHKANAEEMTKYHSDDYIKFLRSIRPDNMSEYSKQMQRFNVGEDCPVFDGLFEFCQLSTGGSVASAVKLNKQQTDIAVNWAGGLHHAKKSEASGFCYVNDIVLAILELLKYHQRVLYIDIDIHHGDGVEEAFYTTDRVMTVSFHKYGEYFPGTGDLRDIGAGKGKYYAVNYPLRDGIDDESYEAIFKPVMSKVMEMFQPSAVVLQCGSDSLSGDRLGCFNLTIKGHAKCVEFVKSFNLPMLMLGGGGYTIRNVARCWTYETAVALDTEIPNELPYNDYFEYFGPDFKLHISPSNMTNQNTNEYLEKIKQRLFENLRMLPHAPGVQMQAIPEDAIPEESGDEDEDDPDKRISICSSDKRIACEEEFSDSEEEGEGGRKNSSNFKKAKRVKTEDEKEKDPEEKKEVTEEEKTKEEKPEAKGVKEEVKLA

B1: MBD6 (protein, UniProt Q96DN6 1-1003)
chain: MNGGNESSGADRAGGPVATSVPIGWQRCVREGAVLYISPSGTELSSLEQTRSYLLSDGTCKCGLECPLNVPKVFNFDPLAPVTPGGAGVGPASEEDMTKLCNHRRKAVAMATLYRSMETTCSHSSPGEGASPQMFHTVSPGPPSARPPCRVPPTTPLNGGPGSLPPEPPSVSQAFPTLAGPGGLFPPRLADPVPSGGSSSPRFLPRGNAPSPAPPPPPAISLNAPSYNWGAALRSSLVPSDLGSPPAPHASSSPPSDPPLFHCSDALTPPPLPPSNNLPAHPGPASQPPVSSATMHLPLVLGPLGGAPTVEGPGAPPFLASSLLSAAAKAQHPPLPPPSTLQGRRPRAQAPSASHSSSLRPSQRRPRRPPTVFRLLEGRGPQTPRRSRPRAPAPVPQPFSLPEPSQPILPSVLSLLGLPTPGPSHSDGSFNLLGSDAHLPPPPTLSSGSPPQPRHPIQPSLPGTTSGSLSSVPGAPAPPAASKAPVVPSPVLQSPSEGLGMGAGPACPLPPLAGGEAFPFPSPEQGLALSGAGFPGMLGALPLPLSLGQPPPSPLLNHSLFGVLTGGGGQPPPEPLLPPPGGPGPPLAPGEPEGPSLLVASLLPPPPSDLLPPPSAPPSNLLASFLPLLALGPTAGDGEGSAEGAGGPSGEPFSGLGDLSPLLFPPLSAPPTLIALNSALLAATLDPPSGTPPQPCVLSAPQPGPPTSSVTTATTDPGASSLGKAPSNSGRPPQLLSPLLGASLLGDLSSLTSSPGALPSLLQPPGPLLSGQLGLQLLPGGGAPPPLSEASSPLACLLQSLQIPPEQPEAPCLPPESPASALEPEPARPPLSALAPPHGSPDPPVPELLTGRGSGKRGRRGGGGLRGINGEARPARGRKPGSRREPGRLALKWGTRGGFNGQMERSPRRTHHWQHNGELAEGGAEPKDPPPPGPHSEDLKVPPGVVRKSRRGRRRKYNPTRNSNSSRQDITLEPSPTARAAVPLPPRARPGRPAKNKRRKLAP
B2: DNTTIP (protein, UniProt Q9H147 1-329)
chain: MGATGDAEQPRGPSGAERGGLELGDAGAAGQLVLTNPWNIMIKHRQVQRRGRRSQMTTSFTDPAISMDLLRAVLQPSINEEIQTVFNKYMKFFQKAALNVRDNVGEEVDAEQLIQEACRSCLEQAKLLFSDGEKVIPRLTHELPGIKRGRQAEEECAHRGSPLPKKRKGRPPGHILSSDRAAAGMVWKPKSCEPIRREGPKWDPARLNESTTFVLGSRANKALGMGGTRGRIYIKHPHLFKYAADPQDKHWLAEQHHMRATGGKMAYLLIEEDIRDLAASDDYRGCLDLKLEELKSFVLPSWMVEKMRKYMETLRTENEHRAVEAPPQT
B3: ELMSAN1 (protein, UniProt Q6PJG2 1-1045)
chain: MNLQAQPKAQNKRKRCLFGGQEPAPKEQPPPLQPPQQSIRVKEEQYLGHEGPGGAVSTSQPVELPPPSSLALLNSVVYGPERTSAAMLSQQVASVKWPNSVMAPGRGPERGGGGGVSDSSWQQQPGQPPPHSTWNCHSLSLYSATKGSPHPGVGVPTYYNHPEALKREKAGGPQLDRYVRPMMPQKVQLEVGRPQAPLNSFHAAKKPPNQSLPLQPFQLAFGHQVNRQVFRQGPPPPNPVAAFPPQKQQQQQQPQQQQQQQQAALPQMPLFENFYSMPQQPSQQPQDFGLQPAGPLGQSHLAHHSMAPYPFPPNPDMNPELRKALLQDSAPQPALPQVQIPFPRRSRRLSKEGILPPSALDGAGTQPGQEATGNLFLHHWPLQQPPPGSLGQPHPEALGFPLELRESQLLPDGERLAPNGREREAPAMGSEEGMRAVSTGDCGQVLRGGVIQSTRRRRRASQEANLLTLAQKAVELASLQNAKDGSGSEEKRKSVLASTTKCGVEFSEPSLATKRAREDSGMVPLIIPVSVPVRTVDPTEAAQAGGLDEDGKGPEQNPAEHKPSVIVTRRRSTRIPGTDAQAQAEDMNVKLEGEPSVRKPKQRPRPEPLIIPTKAGTFIAPPVYSNITPYQSHLRSPVRLADHPSERSFELPPYTPPPILSPVREGSGLYFNAIISTSTIPAPPPITPKSAHRTLLRTNSAEVTPPVLSVMGEATPVSIEPRINVGSRFQAEIPLMRDRALAAADPHKADLVWQPWEDLESSREKQRQVEDLLTAACSSIFPGAGTNQELALHCLHESRGDILETLNKLLLKKPLRPHNHPLATYHYTGSDQWKMAERKLFNKGIAIYKKDFFLVQKLIQTKTVAQCVEFYYTYKKQVKIGRNGTLTFGDVDTSDEKSAQEEVEVDIKTSQKFPRVPLPRRESPSEERLEPKREVKEPRKEGEEEVPEIQEKEEQEEGRERSRRAAAVKATQTLQANESASDILILRSHESNAPGSAGGQASEKPREGTGKSRRALPFSEKKKKTETFSKTQNQENTFPCKKCGR
B4: KDM1B (protein, UniProt Q8NB78 1-822)
chain: MATPRGRTKKKASFDHSPDSLPLRSSGRQAKKKATETTDEDEDGGSEKKYRKCEKAGCTATCPVCFASASERCAKNGYTSRWYHLSCGEHFCNECFDHYYRSHKDGYDKYTTWKKIWTSNGKTEPSPKAFMADQQLPYWVQCTKPECRKWRQLTKEIQLTPQIAKTYRCGMKPNTAIKPETSDHCSLPEDLRVLEVSNHWWYSMLILPPLLKDSVAAPLLSAYYPDCVGMSPSCTSTNRAAATGNASPGKLEHSKAALSVHVPGMNRYFQPFYQPNECGKALCVRPDVMELDELYEFPEYSRDPTMYLALRNLILALWYTNCKEALTPQKCIPHIIVRGLVRIRCVQEVERILYFMTRKGLINTGVLSVGADQYLLPKDYHNKSVIIIGAGPAGLAAARQLHNFGIKVTVLEAKDRIGGRVWDDKSFKGVTVGRGAQIVNGCINNPVALMCEQLGISMHKFGERCDLIQEGGRITDPTIDKRMDFHFNALLDVVSEWRKDKTQLQDVPLGEKIEEIYKAFIKESGIQFSELEGQVLQFHLSNLEYACGSNLHQVSARSWDHNEFFAQFAGDHTLLTPGYSVIIEKLAEGLDIQLKSPVQCIDYSGDEVQVTTTDGTGYSAQKVLVTVPLALLQKGAIQFNPPLSEKKMKAINSLGAGIIEKIALQFPYRFWDSKVQGADFFGHVPPSASKRGLFAVFYDMDPQKKHSVLMSVIAGEAVASVRTLDDKQVLQQCMATLRELFKEQEVPDPTKYFVTRWSTDPWIQMAYSFVKTGGSGEAYDIIAEDIQGTVFFAGEATNRHFPQTVTGAYLSGVREASKIAAF

These are yes or no findings as the source states them, for the method shown. Binding seen in cells or lysates may run through a third protein. A yes stands for co-enrichment or nearness to the bait. Other partners may have been found. For some assays here: No binding means not detected with the bait.

The first assay deals with UTX isoform Δ14Δ16 (GFP-tagged) (human). Put plainly: affinity purification with mass spectrometry; GFP-coated agarose beads (control: agarose beads) on 1 mg nuclear extract of HeLa cells expressing GFP-tagged UTX (1 µg/mL doxycycline, 48 h); overnight at 4 °C in 20 mM Hepes-KOH pH 7.9, 300 mM NaCl, 20% glycerol, 0.1% NP-40; three replicates each; label-free qMS, 1% FDR.
In the case of B1, the binding result is reported as “no binding”.

Turning to B2, the binding entry was “no binding”.

Consider B3, for which the binding entry is given as “no binding”.

For B4, the binding result is “no binding”.

The target in a further assay is UTX isoform Δ13 (GFP-tagged) (human). The assay is described as above.
In the case of B1, the binding result is “binds”.

On to B2, for which the binding result is “binds”.

B3: the binding entry is listed as “binds”.

As for B4, the binding result was “binds”.

A further assay addresses UTX long isoform (GFP-tagged) (human). Described as above.
Consider B1, for which the binding entry is listed as “binds”.

As for B2, the binding entry is on record as “binds”.

B3: the binding result is given as “binds”.

Consider B4, for which the binding entry is “binds”.

Another assay addresses UTX isoform Δ16 (GFP-tagged) (human). The description is as above.
Turning to B1, the binding entry was “binds”.

Turning to B2, the binding entry was “binds”.

On to B3, for which the binding result is listed as “binds”.

Turning to B4, the binding entry is reported as “binds”.

For a further assay, the target named is UTX isoform Δ14, the canonical isoform (GFP-tagged) (human) (UniProt O15550). The assay is described as above.
With BAP1 (from UniProt Q92560 1-729), the binding result is given as “no binding”.

Take PAGR1 (from UniProt Q9BTK6 1-254): the binding entry is listed as “binds”.

Consider ASXL2 (from UniProt Q76L83 1-1435), for which the binding result is “binds”.

Regarding HDAC2 (from UniProt Q92769 1-488), the binding entry is “binds”.

On to PAXIP1 (from UniProt Q6ZW49 1-1069), for which the binding entry is “binds”.

HDAC1 (from UniProt Q13547 1-482): the binding entry was “binds”.

Consider B1, for which the binding result is listed as “binds”.

B2: the binding entry was “binds”.

On to B3, for which the binding result was “binds”.

For B4, the binding result is “binds”.
